In publication PMC7201719:
These are yes or no findings as the source states them, for the method shown. In cells and extracts the contact can be indirect. These calls come from enrichment with a bait or labelling near it, and not all partners need be listed.

B1: EF hand-containing protein 1 (protein, UniProt Q49B65 1-238)
chain: MASEELAQKLQRRLLLEESGAEAEGDEEEAAVSAPSETGEEERSCLTASAGAELSAKLARRHDINEGAAQPRRAAVFNPYTEFKEFSRRQIKDMERMFRLYDSGRDGYIDLMELKLMMEKLGAPQTHLGLKNMIKEVDEDFDGKLSFREFLLIFHKAAAGELEEDSGLLTLAKLSEIDVSIEGVKGAKNFFEAKVQALSSASKFEAEIRAEQDERKREEEERKHRRAAFRELKSAFTQ
B2: Succinate dehydrogenase, mitochondrial (enzyme, UniProt Q9YHT2 39-290)
chain: AQTAAAATSRIKKFSIYRWDPDKPGDKPRMQTYEVDLNKCGPMVLDALIKIKNELDSTLTFRRSCREGICGSCAMNIAGGNTLACTKKIDPDLSKTTKIYPLPHMYVVKDLVPDLSNFYAQYKSIEPYLKKKDESKQGKEQYLQSIEDRQKLDGLYECILCACCSTSCPSYWWNGDKYLGPAVLMQAYRWMIDSRDDYTEERLAQLQDPFSLYRCHTIMNCTRTCPKGLNPGKAIAEIKKMMATYKEKAAAA
B3: Monocarboxylate transporter 4 (protein, UniProt P57788 1-473)
chain: MGAVVVDDGPSGVKAPDGGWGWAVLFGCFIITGFSYAFPKAVSVFFKELIREFGVGYSDTAWISSILLAMLYGTGPLCSVCVNRFGCRPVMLVGGLFASMGMVIASFCTSIVQIYLTAGVITGLGLALNFQPSLIMLNRYFDKRRPLANGLSAAGSPVFLCALSPLGQILQHEYGWRGGFLILGGMLLNCCVCGALMRPLEPPKKSEATKEPAEKKAKKKLLDFSVFKDGGFVIYTLAASIMVLGLFVPPVFVVSYAKDLGYQDTKAAFLLTILGFIDIFARPICGMVAGLKWVRPRCVYLFSFAMIFNGFTDLMGSMSVDYGGLVVFCIFFGISYGMVGALQFEVLMAIVGTQKFSSAIGLVLLAEAMAVLIGPPSAGKLLDLTRRYMFVFIIAGIEVTTSALVLALGNFFCIKKKPAEPHTKEAAAEREELNKSEDKTPEDAKVDSIEVEQFLKDEPEKNGEVVTNPETCV
B4: Isoleucine-tRNA ligase, mitochondrial (enzyme, UniProt Q5ZKA2 28-1000)
chain: ASEANSRRPAEESRQDSQYRDTVLLPHSRFAAQLPGRLQPDTELETQQKSGFLELYSWQRQRKAKQEFCLHDGPPYANGDPHVGHALNKILKDITNRFHMMRGYKVHYVPGWDCHGLPIELKALSEVKGAENLSPVEIRQKAKEFAERAIEKQKAAFIRWGIMADWANCYRTFDPKYEANQLRVFHKMYDKGFIYQDYKPVFWSPSAKTALAEAELEYNEQHVSRSVYMKFPLLKSPPKLASVIDGSSPASVLVWTTQPWTVPANQAVCYMPDAEYSVVKCATTGEHLILAADRVESTAAVLDTQFEVISTCKGVDLADGSCAHPTIAGRVSPLLPANHVTMTKGTGLVHTAPAHGMEDYNVASHHQLPTECLVDESGHFTEAAGPELKNKNVLEEGNEAVIKMLQAAGSLLKEEKYVHSYPYDWRTKKPMIIRASKQWFVNTANVKATAQEALKKVKIIPTSAVNRMLEMLDRRTFWCISRQRCWGVPIPVFYQKDTGESLINSETIADVIKIVEQQGTDAWWTLPIEQLLSKEAVAKAGGHNVLDYVKGQDVLDIWFDSGTSWAHVLEGAEQRADVYLEGKDQLGGWFQSSLLTSVATRKKAPYKTLVVHGFTLGEKGEKMSKSIGNVVDPDVVINGGDDHTKDPPYGADVLRWWVAESNVFTEVLIGPVVLNAARDDINKLRNTLRFMLGNMAGFNPETDSIPPSEMYIVDQYMLHLLQDYGSKVTEAYKEYDYSKVVRLLQAFCSRNLSNFYFSIIKDRLYCEEEKDPKRRSCQTVLAEALDVVVRSFAPILPHLAEEVFQHLPYKKDSEGVFRTGWINASSGWKKPGIEEAIEGACAMRDSFLGSISGKNALEYEVIIVIEPGLLFELMEALQAEESSRVSQLNEIMMASQTTLLSEIPKETPADANIVKGNFLINLEGGDIREESSYQVIALPTTKAKCPRCRRYTSDSSSTPCPRCLKVIAGKGST
B5: Elongator complex protein 3 (protein, UniProt Q5ZHS1 1-546)
chain: MGQKRKDLSHAELMMMTIADIIKQLIEAHEQGKDVNLNKLKTKTSAKYGLSAQPRLVDIIAAVPPQHRKALVPKLKAKPIRTASGIAVVAVMCKPHRCPHINFTGNICVYCPGGPDSDFEYSTQSYTGYEPTSMRAIRARYDPYLQTRHRVEQLKQLGHSVDKVEFIVMGGTFMALPEDYRDYFIRNLHDALSGHTSNNVAEAVKYSERSLTKCVGITIETRPDYCLKRHLSDMLSYGCTRLEIGVQSVYEDVARDTNRGHTVKAVCESFHLAKDAGFKVVAHMMPDLPNMGLERDTDQFVEFFENPAFRPDGMKLYPTLVIRGTGLYELWKTGRYKSYPPSTLVDLVARILALVPPWTRVYRVQRDIPMPLVSSGVEHGNLRELALARMKDLGTQCRDVRTREVGIQEIHHKVRPYQIELIRRDYVANGGWETFLSYEDPEQDILVGLLRLRKCSEESFRPELKGGVSIVRELHVYGSVVPVSSRDPSKFQHQGFGMLLMEEAERIAKEEHGSWKIAVISGVGTRNYYRKIGYELEGPYMVKRLQ
B6: Protein phosphatase 1 regulatory (protein, UniProt Q90623 1-1004)
chain: MKMADAKQKRNEQLKRWIGSETDLEPPVVKRKKTKVKFDDGAVFLAACSSGDTEEVLRLLERGADINYANVDGLTALHQACIDDNVDMVKFLVENGANINQPDNEGWIPLHAAASCGYLDIAEYLISQGAHVGAVNSEGDTPLDIAEEEAMEELLQNEVNRQGVDIEAARKEEERIMLRDARQWLNSGHINDVRHAKSGGTALHVAAAKGYTEVLKLLIQARYDVNIKDYDGWTPLHAAAHWGKEEACRILVENLCDMEAVNKVGQTAFDVADEDILGYLEELQKKQNLLHSEKREKKSPLIESTANLDNNQTQKTFKNKETLIMEQEKNASSIESLEHEKADEEEEGKKDESSCSSEEEEDDDSESEAETDKAKTLANANTTSTQSASMTAPSVAGGQGTPTSPLKKFPTSTTKVSPKEEERKDESPASWRLGLRKTGSYGALAEITASKEAQKEKDSAGVIRSASSPRLSSSLDNKEKEKDGKGTRLAYVAPTIPRRLASTSDIDEKENRDSSASSIRSGSSYARRKWEEDVKKNSLNEGPTSLNTSYQRSGSFGRRQDDLVSSNVPSTASTVTSSAGLQKTLPASANTTTKSTTGSTSAGVQSSTSNRLWAEDSTEKEKDSVPTAVTVPVAPSVVNAAATTTAMTTATSGTVSSTSEVRERRRSYLTPVRDEESESQRKARSRQARQSRRSTQGVTLTDLQEAEKTIGRSRSTRTREQENEEKEKEEKEKQDKEKQEEKKESETKDDDYRQRYSRTVEEPYHRYRPTSTSTSTSSTSSLSTSTSSLSSSSQLNRPNSLIGITSAYSRSGTKESEREGGKKEEEKEEDKSQPKSIRERRRPREKRRSTGVSFWTQDSDENEQEHQSDSEEGTNKKETQSDSLSRYDTGSLSVSSGDRYDSAQGRSGSQSYLEDRKPYCSRLEKEDSTDFKKLYEQILAENEKLKAQLHDTNMELTDLKLQLEKTTQRQERFADRSLLEMEKRVSGKSQYLLGGKKSSRKKDI
B7: Protein phosphatase 1 regulatory subunit 21 (protein, UniProt Q5ZL12 1-779)
chain: MAATAELQGKYQKLAQEYSKLRAQNQVLKKGVVDEQANSASLKEQLKMKDQSLRKLQQEMDSLTFRNQQLAKRVELLQDELSLSETRGKKNKKSAESSSQLSQEQKSVFNEDLQKKIEENERLHILYFEADEQHKRLEAELRTKLEVLESDAAQHQAVVDSLTRKYTDTIEKLQNDKSKLEIKSQTLEREAKDCRLRTEECQQQLKNLQAALGSRLEESLCIINEKVPFNDTRSNRYNALNVPLHNRRYQLKLRDLAGQALSFVQEIVTALLNFHTYTEQKAQIFPIDSATDTISPLNQKFSQYLHENAFYVRPLEEGMLQLFESITEDTVTVLETAVKLKAFSEHLASYLCFLRKILPYQLKSLEEECESSLCTAALKARNMELHRDMKRLTAIFEKLHTYVSLLALPSTKPEGLLRTNYSLVFTNIAASLHGSHDILKDISKHYSQKATLEQDVPTATQKLVTTNDCILSSILSLTNGVGKIASFFSNNLDHFTSSLSYGPKGGTEFISPLSAECMLQYKKKAVAYMKSLKKPCADSVPYEEALANRRVLLSSTESREGLAQQVQQSLEKIAKLEQEKEHWMLEAQLAKIKLEKENQKLKNSLSGHLAETVQERSVLSNTAEQKEETTEKSQREPIKTTSLIGMLTITTDNEKVPDVESREDLIKKHYMARIAELTSHLQLADSKSVHFHAECRALAKRLSLAEKSKESLTEELKLASQSISRLQDELMTTKRSYEDQLSMMSDHLCSMNETLTKQREEIDTLKMTSKGNSKKNKTR
B8: FERM, RhoGEF and pleckstrin domain-containing protein 1 (protein, UniProt F1P065 1-1046)
chain: MGETEQRPTAGSRLGAQENAGISTLEHGQKPPLTPPGKLISIKIQMLDDTQETFEVPQRAPGKVLHDAVCNHLNLVEGDYFGLEFPDHKKMMVWLDLLKPVMKQIRRPKHVVVKFVVKFFPPDHAQLQEELTRYLFALQVKQDLAQGRLTCNDTSTALLISHIVQSEIGDFDETIDREHLAKNKYIPQQEALEDKIMEFHRKHTGQTPAESDFQLLEIARRLEMYGIRLHPAKDREGTKINLAVANTGILVFQGHTKINAFNWAKVRKLSFKRKRFLIKLRPDVNSSFQDTLEFLMASRDFCKSFWKICVEHHAFFRLFEEPKPKPKPVLFSRGSSFRFSGRTQKQVLDYVKEGGHKKVQFERKHSKIRSIRSLTAQPSEQHAEVPKQSFQSSSFAYGDDSDAAAVQSCQQGKELKASTEDTGQHKSPSLKKSPKEGRKVDGAVVSAVEEEEEAATDRMQQNRPQSQQPSTAGSLTGSPHLSELSINSQGGPSVANMSLSPNLSPDAKQSSPLISPLLNDPSCIRTEEEEEVKKKRFPTEKAYFIAKEVATTERTYLKDLEVITSWFQSAVSKEDCMPETLKNLIFSNFEPLHKFHTGFLKEIEQRLALWEGRSNAHIKGGHQRIGDVMLKNIQGMKQLTIHLWKHNEILTELENGIKNSRKLETFCRDFELQKVCYLPLNTFLLRPLHRLMHYKQIMERLCKHYPPNHVDFRDSRAALAEITEMMAQLHGNMIKMENFQKLHELKKDLIGIDNLVIPGREFIRLGSLSKLSGKGLQQRMFFLFNDILLYTSRGLTASNQFKVHGHLPLYGMTIEDSEEEWGVPHCLTLRGQQQSIIVAASTRAEIDKWIEDIQMAIDLAEKSSDPVPELLASSPPDNKSPDETTVDQESEDDLSASRTSLERQSPHRGNTTVHVCWHRNTSVSMIDFSIAVENQLSGNLLRKFKNSNGWQKLWVVFTNFCMFFYKSHQDNHPLASLPLLGYSLTIPSESENIHKDYVFKLHFKSHVYYFRAESEYTFERWMEVIRSATSSALRTRALSHREPHTY
B9: Lamin-B1 (protein, UniProt P14731 1-584)
chain: MAAAVAPLSPQPRGAAASAALSPTRISRLQEKEELRQLNDRLAVYIDKVRSLETENSALQRRVSEREQVCGREISGLKELFETELADARKTLDDTARERAKLQIELGKLRAEHEQVLSSYAKKDSDLNAAQVKLREFEAALNAKEAALATALGDKRSQEEELEDLRDQIAQLEVSLAAAKKELADETLQKVDLENRCQSLIEDLEFRKNVYEEEIKETRRKHETRLVEVDSGRQIEYEYKLAQALKEIREQHDAQVKLYKEELEQTYSSKLENIRQSSEMHSCTANTVREELHESRMRIETLSSHIADIQKESRAWQDRVHELEDTLSKERENYRKILAENEREVAEMRNQMQQQFSDYEQLLDVKLALDMEISAYRKLLESEEERLRLSPGPSSRVTVSRASSSRSVRTTRGKRKRIDVEESEASSSVSISHSASATGNISIEEIDVDGKFIRLKNTSEQDQPMGGWEMIRKIGDTSASYRYTSRYVLKAGQTVTIWAANAGVTASPPTDLIWKNQNSWGTGEDVKVVLKNSQGEEVAQRSTVFKTTVNEGEEEEEEGEEEILEDVIHQQGSPRKPERSCVVM

Target: IBDV VP2 protein (infectious bursal disease virus (IBDV))
Test: affinity purification with mass spectrometry; lysate of DF-1 cells transfected with pcDNA-VP2 (lysis buffer 150 mM NaCl, 1% NP-40, 25 mM Tris, 5% glycerol) precipitated with the anti-VP2 monoclonal antibody 2H11 immobilised on agarose (coimmunoprecipitation crosslinking kit); 10% SDS-PAGE, silver stain; bands differing from the negative control excised and identified by mass spectrometry

Binder	binding
B1	binds
B2	binds
B3	binds
B4	binds
B5	binds
B6	binds
B7	binds
B8	binds
B9	binds
